Appearance of semicircles data for one molecule are collected here from patent US9370587B2, “Coloring substance for diagnostic ophtalmologic use” (IROS R.C. S.r.l., priority 2012, dated 2016).

A short description of this data set: Quality of semicircles displayed with Goldmann tonometer. The data set is classed as in vivo, human. The source says: Preferably, an aqueous solution of the substance according to the present invention with a concentration of at least 0.01% will be used, in order to have semicircles with a minimum thickness that allows easy viewing.

For `Cc1cc2nc3c(=O)[nH]c(=O)nc-3n(C[C@H](O)[C@H](O)[C@H](O)CO)c2cc1C` [riboflavin], the appearance of semicircles entry is “surprisingly regular circular semicircles, with edges of constant thickness and substantially free of smears” (Goldmann tonometer, riboflavin instead of fluorescein); “relatively thick but well-defined semicircles” (high concentration aqueous solution of riboflavin (0.5%)).
